The assay addresses [CD40(h)(21–193)]-Tev-His6, human CD40 extracellular domain (human) (UniProt P25942). As to the kind of experiment: crystal structure; ABBV-323 Fab and CD40 mixed at 1.05:1 molar ratio, complex purified by SEC; crystals by vapor diffusion at 23 °C, 2 M ammonium sulfate, 0.1 M phosphate-citrate pH 4.2; 2 complexes in the asymmetric unit; CD40 dimer generated by crystallographic symmetry; both purified. (In general: In gel filtration, larger molecules generally elute earlier.)

The chains behind the UniProt entries cited, without tags or fusion partners. Residues count along the entry.
UniProt P25942, residues 21-193: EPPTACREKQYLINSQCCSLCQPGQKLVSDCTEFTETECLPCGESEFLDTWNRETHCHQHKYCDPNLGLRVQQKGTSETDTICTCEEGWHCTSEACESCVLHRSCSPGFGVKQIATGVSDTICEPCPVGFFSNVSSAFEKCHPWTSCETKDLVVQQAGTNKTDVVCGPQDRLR

This passage reports binding results from PMC6683420 (BMC Molecular and Cell Biology, 2019).

These are yes or no findings as the source states them, for the method shown. Some results given as binding are weak or reduced against the parent protein; the word gives no strength.

As to “[CD40(h)(21–193)]-Tev-His6, human CD40 extracellular domain (from UniProt P25942 21-193) (domain or fragment; other documents disagree on this pair)”, the binding result was “binds”.
